Results are given in words; binding and its absence hold for the method and conditions named. For part of these data: Binding seen in cells or lysates may run through a third protein. Some results given as binding are weak or reduced against the parent protein; the word gives no strength. Sequences can lack the tags named with a protein.
How the values were obtained:
[1] = target: T1, KapD fused to the Gal4 DNA binding domain (pGBDU bait) (B. subtilis) (UniProt O05231); experiment: two-hybrid; genome-wide screen of a pGAD B. subtilis genomic library with pGBDU-KapD bait in yeast; selection on -LUH or -LUA; prey recloned for a specificity assay against empty vector and non-related proteins
T1 sequence: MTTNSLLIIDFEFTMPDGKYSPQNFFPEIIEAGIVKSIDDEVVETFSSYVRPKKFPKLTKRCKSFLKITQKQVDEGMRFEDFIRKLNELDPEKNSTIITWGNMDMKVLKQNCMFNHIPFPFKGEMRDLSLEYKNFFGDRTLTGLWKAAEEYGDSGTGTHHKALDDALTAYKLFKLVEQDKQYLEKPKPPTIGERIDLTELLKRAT

[2] = target: T2, KapD-6xHis (B. subtilis) (UniProt O05231); experiment: pull-down + SEC; as the co-purification of KapD-6xHis and CotY-3xFLAG, but cells lysed in the presence of RNase A (10 ug/mL)
T2 sequence: T1 sequence

[3] = target: T2, KapD-6xHis (B. subtilis); experiment: pull-down + SEC; pellets of E. coli expressing KapD-6xHis and CotY-3xFLAG mixed and lysed together; His-Trap column, then Superdex 200 10/300 GL in 20 mM Tris-HCl pH 8.8, 150 mM NaCl, 10% glycerol; fractions blotted with anti-KapD and anti-Flag

B1: CotY, full length, fused to the Gal4 activation domain (pGAD prey clone) (protein, UniProt Q08311 1-162)
chain: MSCGKTHGRHENCVCDAVEKILAEQEAVEEQCPTGCYTNLLNPTIAGKDTIPFLVFDKKGGLFSTFGNVGGFVDDMQCFESIFFRVEKLCDCCATLSILRPVDVKGDTLSVCHPCDPDFFGLEKTDFCIEVDLGCFCAIQCLSPELVDRTSPHKDKKHHHNG
- binding [1]: binds

B2: CotY-3xFLAG (protein, UniProt Q08311 1-162)
chain: B1 chain
- binding [2]: binds
- binding [3]: binds

Reference: paper PMC11736430, “Embedding a ribonuclease in the spore crust couples gene expression to spore development in Bacillus subtilis” (Nucleic Acids Research, 2025)
